Measurements: patent publication US20250034184A1, “QUATERNARY PHOSPHONIUM COMPOUNDS AND USES THEREOF” (Emory University, priority 2021, published 2025)

Columns and labels:
Experiment in all cases: microbe, parasite or virus in culture
Type in all cases: cell-based
[1] = tested on: Pseudomonas aeruginosa (PAO1); details: PAO1, read-out: Minimum Inhibitory Concentration Pa
[2] = tested on: community-acquired methicillin-resistant S. aureus (CA-MRSA; USA 300-0114); details: Staphylococcus aureus, read-out: Minimum Inhibitory Concentration CA-MRSA
[3] = tested on: methicillin-susceptible S. aureus (SH1000); details: Staphylococcus aureus, MSSA, read-out: Minimum Inhibitory Concentration MSSA
[4] = tested on: Enterococcus faecalis (OG1RF); details: read-out: Minimum Inhibitory Concentration E. faecalis
[5] = tested on: Escherichia coli (MC4100); details: read-out: Minimum Inhibitory Concentration E. coli
[6] = tested on: hospital-acquired methicillin-resistant S. aureus (HA-MRSA; ATCC 33591); details: Staphylococcus aureus, read-out: Minimum Inhibitory Concentration HA-MRSA

SMILES: CCCCCCCCCCCCCCCC[n+]1ccccc1 [CPC, cetylpyridinium chloride, reference compound]
- MIC [1]: 250 µM
- MIC [2]: 1 µM
- MIC [3]: 1 µM
- MIC [4]: 250 µM
- MIC [5]: 32 µM
- MIC [6]: 2 µM
